Drawing on publication PMC9136845, this text covers binding for three substances.

Chains of the proteins cited; added tags and fusions are not shown.
UniProt Q9Y483: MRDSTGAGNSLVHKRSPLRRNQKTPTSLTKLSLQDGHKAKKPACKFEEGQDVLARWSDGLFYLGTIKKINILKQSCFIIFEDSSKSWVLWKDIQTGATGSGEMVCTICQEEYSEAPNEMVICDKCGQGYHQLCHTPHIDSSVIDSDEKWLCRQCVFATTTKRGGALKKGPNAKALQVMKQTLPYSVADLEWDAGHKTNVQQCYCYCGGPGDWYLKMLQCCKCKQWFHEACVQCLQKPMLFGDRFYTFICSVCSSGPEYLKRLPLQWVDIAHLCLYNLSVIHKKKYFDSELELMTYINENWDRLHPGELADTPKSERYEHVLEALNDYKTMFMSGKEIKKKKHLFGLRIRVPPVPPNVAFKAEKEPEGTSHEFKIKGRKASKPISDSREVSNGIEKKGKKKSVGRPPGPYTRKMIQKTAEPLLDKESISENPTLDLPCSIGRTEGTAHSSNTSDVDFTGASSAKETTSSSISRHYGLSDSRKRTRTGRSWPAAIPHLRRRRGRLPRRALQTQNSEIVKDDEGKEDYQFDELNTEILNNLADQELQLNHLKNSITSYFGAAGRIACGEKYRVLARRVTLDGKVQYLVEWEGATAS
UniProt A6NHQ4: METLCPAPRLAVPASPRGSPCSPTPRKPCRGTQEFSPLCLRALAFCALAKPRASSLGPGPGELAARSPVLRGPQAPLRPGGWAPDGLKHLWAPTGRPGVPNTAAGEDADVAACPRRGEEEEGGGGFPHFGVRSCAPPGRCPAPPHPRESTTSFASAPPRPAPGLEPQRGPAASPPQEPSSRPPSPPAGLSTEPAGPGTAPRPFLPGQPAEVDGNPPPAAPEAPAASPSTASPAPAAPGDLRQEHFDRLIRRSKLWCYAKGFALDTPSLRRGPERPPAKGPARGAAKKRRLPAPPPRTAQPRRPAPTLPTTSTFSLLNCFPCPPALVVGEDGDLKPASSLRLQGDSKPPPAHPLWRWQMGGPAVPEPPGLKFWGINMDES

Assay [1] concerns the target embryonic ectoderm development (EED) GFP-fusion protein (UniProt O75530). Nature of the assay: affinity purification with mass spectrometry; GFP enrichment with antifouling pSB-co-(aGFP)8% beads (~93 million beads) from 1 mg nuclear extract of EED-GFP HeLa cells, WT HeLa nuclear extract as control; 90 min at 4 °C in nuclei lysis buffer (420 mM NaCl, 20 mM HEPES/KOH pH 7.9, 0.1% NP40); on-bead trypsin digestion, label-free nanoLC-MS/MS, triplicates.

The target is the same in assay [2]. Nature of the assay: affinity purification with mass spectrometry; GFP enrichment with Chromotek GFP-Trap magnetic beads (~93 million beads, 50 μL slurry) from 1 mg nuclear extract of EED-GFP HeLa cells, WT HeLa nuclear extract as control; 90 min at 4 °C in nuclei lysis buffer (420 mM NaCl, 20 mM HEPES/KOH pH 7.9, 0.1% NP40); on-bead trypsin digestion, label-free nanoLC-MS/MS, triplicates.

No constants are given. Whether binding was seen depends on the method and setting. In cells and extracts the contact can be indirect. A yes stands for co-enrichment or nearness to the bait. Other partners may have been found.

PCL2 (from UniProt Q9Y483 1-593): the binding entry in assay [1] and in assay [2] was “binds” each time.

Turning to C17orf96 (from UniProt A6NHQ4 1-379), the binding entry in assay [1] and in assay [2] was “binds” throughout.

PCL3 (from UniProt Q5T6S3 1-580): the binding result in assay [1] and in assay [2] was “binds” throughout.
